Assay results taken from article PMC12042775.
These are yes or no findings as the source states them, for the method shown. Some results given as binding are weak or reduced against the parent protein; the word gives no strength.

Chains of the proteins cited; added tags and fusions are not shown. Lines headed by an entry give the natural chain unless they say otherwise; changes in a name come on top.
UniProt P02452: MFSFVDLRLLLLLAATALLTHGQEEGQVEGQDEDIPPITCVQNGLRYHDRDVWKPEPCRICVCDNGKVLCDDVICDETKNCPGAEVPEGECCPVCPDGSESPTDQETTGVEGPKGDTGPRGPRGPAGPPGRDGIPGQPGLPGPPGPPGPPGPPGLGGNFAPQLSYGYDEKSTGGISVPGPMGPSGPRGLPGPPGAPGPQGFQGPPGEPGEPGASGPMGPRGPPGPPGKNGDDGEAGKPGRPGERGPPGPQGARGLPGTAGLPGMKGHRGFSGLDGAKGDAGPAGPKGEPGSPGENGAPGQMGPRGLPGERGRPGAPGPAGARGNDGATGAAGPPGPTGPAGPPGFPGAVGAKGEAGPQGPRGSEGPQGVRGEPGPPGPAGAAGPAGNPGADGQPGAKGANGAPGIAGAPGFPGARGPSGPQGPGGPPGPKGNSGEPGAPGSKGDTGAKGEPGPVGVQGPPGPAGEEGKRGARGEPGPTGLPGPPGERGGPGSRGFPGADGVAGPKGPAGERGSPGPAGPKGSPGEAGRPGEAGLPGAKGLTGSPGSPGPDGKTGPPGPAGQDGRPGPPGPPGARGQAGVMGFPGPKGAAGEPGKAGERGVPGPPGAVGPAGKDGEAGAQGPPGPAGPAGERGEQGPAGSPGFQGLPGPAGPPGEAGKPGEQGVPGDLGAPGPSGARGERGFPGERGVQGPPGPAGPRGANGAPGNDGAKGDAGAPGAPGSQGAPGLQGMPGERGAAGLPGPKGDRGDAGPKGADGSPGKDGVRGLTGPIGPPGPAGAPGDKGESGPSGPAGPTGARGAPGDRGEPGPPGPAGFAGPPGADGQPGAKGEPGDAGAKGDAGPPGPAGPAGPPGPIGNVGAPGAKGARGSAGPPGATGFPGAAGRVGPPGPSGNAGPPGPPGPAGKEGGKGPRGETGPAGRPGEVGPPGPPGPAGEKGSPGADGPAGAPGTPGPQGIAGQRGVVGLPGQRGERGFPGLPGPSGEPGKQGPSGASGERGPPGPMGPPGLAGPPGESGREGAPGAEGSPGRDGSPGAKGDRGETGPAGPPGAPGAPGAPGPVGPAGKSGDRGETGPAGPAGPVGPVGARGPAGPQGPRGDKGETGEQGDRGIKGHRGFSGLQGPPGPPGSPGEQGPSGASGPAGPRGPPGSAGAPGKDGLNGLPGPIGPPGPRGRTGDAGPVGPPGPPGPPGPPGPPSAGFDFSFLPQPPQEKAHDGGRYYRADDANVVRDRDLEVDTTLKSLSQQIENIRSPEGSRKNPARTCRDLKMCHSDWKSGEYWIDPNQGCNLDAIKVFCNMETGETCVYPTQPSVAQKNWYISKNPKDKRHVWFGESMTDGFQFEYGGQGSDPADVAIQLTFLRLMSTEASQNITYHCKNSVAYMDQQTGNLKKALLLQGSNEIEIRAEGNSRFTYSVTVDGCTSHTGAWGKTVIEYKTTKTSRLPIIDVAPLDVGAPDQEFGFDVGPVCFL
UniProt P17301: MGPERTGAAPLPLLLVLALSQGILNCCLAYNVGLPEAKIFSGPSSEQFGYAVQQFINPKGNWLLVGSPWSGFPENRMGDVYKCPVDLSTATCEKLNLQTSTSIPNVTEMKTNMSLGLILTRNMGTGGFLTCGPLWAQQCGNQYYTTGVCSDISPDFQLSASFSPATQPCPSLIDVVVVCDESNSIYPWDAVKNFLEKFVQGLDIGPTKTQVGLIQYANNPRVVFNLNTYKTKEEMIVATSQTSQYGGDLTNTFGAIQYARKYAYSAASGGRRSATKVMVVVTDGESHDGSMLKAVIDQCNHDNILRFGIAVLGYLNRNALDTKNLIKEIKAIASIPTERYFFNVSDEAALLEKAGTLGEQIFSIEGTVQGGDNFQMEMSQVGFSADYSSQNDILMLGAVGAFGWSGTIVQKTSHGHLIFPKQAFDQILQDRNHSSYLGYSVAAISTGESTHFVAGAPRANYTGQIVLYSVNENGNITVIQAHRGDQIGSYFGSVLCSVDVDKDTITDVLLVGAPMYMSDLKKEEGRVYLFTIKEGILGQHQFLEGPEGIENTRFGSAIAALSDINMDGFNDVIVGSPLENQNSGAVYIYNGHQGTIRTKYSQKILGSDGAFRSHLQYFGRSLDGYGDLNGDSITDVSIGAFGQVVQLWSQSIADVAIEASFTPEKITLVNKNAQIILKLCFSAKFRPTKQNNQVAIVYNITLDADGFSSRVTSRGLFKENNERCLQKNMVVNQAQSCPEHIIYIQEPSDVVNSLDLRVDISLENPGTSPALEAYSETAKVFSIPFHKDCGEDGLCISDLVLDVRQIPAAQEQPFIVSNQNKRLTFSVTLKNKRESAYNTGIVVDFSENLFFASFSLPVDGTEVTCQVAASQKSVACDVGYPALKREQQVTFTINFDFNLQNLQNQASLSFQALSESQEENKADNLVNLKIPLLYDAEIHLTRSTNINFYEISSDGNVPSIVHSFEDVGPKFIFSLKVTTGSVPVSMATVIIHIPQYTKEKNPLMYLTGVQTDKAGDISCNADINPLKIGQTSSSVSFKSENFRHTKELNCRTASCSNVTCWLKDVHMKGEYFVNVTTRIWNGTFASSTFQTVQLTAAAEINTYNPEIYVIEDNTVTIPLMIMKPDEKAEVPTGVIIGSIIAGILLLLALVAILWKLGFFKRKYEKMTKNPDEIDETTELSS

Target: collagen type I (Sigma-Aldrich C7774) (UniProt P02452)
Test: single-particle TIRFM count of sEVs bound to ECM-coated glass; ECM protein coated on casein-treated glass (100 μg/ml fibronectin, 50 μg/ml laminin or 100 μg/ml collagen type I, 2 h, 37°C); fluorescent sEVs (tetraspanin-Halo7 labelled) from WT, integrin-KO, α6-rescued or α6 R155A PC3 cells applied for 1 h at 37°C, washed twice with HBSS; number on casein-coated glass subtracted; only the target purified

- binding: binds
Substance: integrin α2β1 heterodimer in PC3-derived sEVs (from UniProt P17301 30-1181; P05556-1 21-798) (complex)
